According to article PMC10575587:
Results are given in words; binding and its absence hold for the method and conditions named. Binding seen in cells or lysates may run through a third protein. A yes stands for co-enrichment or nearness to the bait. Other partners may have been found.

Protein sequences, listed by entry. Tags and fused reporters are not part of them. Lines headed by an entry give the natural chain unless they say otherwise; changes in a name come on top.
UniProt P63208: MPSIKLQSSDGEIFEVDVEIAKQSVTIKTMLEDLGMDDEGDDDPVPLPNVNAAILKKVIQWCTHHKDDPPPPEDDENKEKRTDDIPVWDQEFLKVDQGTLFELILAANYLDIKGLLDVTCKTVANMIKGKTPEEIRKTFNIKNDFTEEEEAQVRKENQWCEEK

How the values were obtained:
[1] = target: Flag-tagged SKP1^K142R/K163R (SKP1^RR) (UniProt P63208); assay: affinity purification with mass spectrometry; anti-FLAG agarose IP of Flag-SKP1^WT or SKP1^RR from HEK293T co-transfected with HA-SUMO1, Myc-UBC9 and SLX4; eluted with 3x FLAG peptide
Flag-tagged SKP1^WT = Flag-tagged SKP1^WT (UniProt P63208); assay: as above

binding [1]: binds | binding (Flag-tagged SKP1^WT): binds
B1: PPM1B (in HEK293T lysate) (enzyme, UniProt O75688 1-479)
chain: MGAFLDKPKTEKHNAHGAGNGLRYGLSSMQGWRVEMEDAHTAVVGIPHGLEDWSFFAVYDGHAGSRVANYCSTHLLEHITTNEDFRAAGKSGSALELSVENVKNGIRTGFLKIDEYMRNFSDLRNGMDRSGSTAVGVMISPKHIYFINCGDSRAVLYRNGQVCFSTQDHKPCNPREKERIQNAGGSVMIQRVNGSLAVSRALGDYDYKCVDGKGPTEQLVSPEPEVYEILRAEEDEFIILACDGIWDVMSNEELCEYVKSRLEVSDDLENVCNWVVDTCLHKGSRDNMSIVLVCFSNAPKVSDEAVKKDSELDKHLESRVEEIMEKSGEEGMPDLAHVMRILSAENIPNLPPGGGLAGKRNVIEAVYSRLNPHRESDGASDEAEESGSQGKLVEALRQMRINHRGNYRQLLEEMLTSYRLAKVEGEESPAEPAATATSSNSDAGNPVTMQESHTESESGLAELDSSNEDAGTKMSGEKI
